Laboratory results from the supplement of paper PMC3682954.
Structures can show the parent of a compound that is named as a salt. ± gives the standard deviation of the averaged measurements. The list shows a part of the results. Many values rest on one well or one pass, so single values are uncertain.

System: RAW 264.7
Test: HMGB1-induced TNF-alpha production relative to HMGB1-stimulated control; higher = more TNF-alpha secretion (less inhibition)
Conditions: stimulus: HMGB1 5 ug/ml, 18 h
[1] = compound concentration: 1 ug/ml

SMILES	HMGB1-induced TNF-alpha production (compound concentration: 3 uM)	HMGB1-induced TNF-alpha production [1]
COc1cccc(OC)c1OCCNCC1COc2ccccc2O1 (configuration not stated) [WB-4101 hydrochloride]	72.3%	
O=C1NCN(c2ccccc2)C12CCN(CCCC(c1ccc(F)cc1)c1ccc(F)cc1)CC2 [Fluspirilen]	72.6%	
O=C1NCN(c2ccccc2)C12CCN(CCCC(c1ccc(F)cc1)c1ccc(F)cc1)CC2 [Fluspirilene]	54.4 ± 8.3%	
CC(C)(C)C(=O)OCOC(=O)[C@@H]1N2C(=O)[C@@H](NC(=O)[C@H](N)c3ccccc3)[C@H]2SC1(C)C [Pivampicillin]	90%	
O=[N+]([O-])c1cccc2c(Br)[nH]nc12 [3-Bromo-7-nitroindazole]	65%	
N=C(N)NC(=O)c1nc(Cl)c(N)nc1N [Amiloride hydrochloride dihydrate]	69.5%	
N=C(N)NC(=O)c1nc(Cl)c(N)nc1N [Amiloride hydrochloride]	84.3%	
N=C(N)NC(=O)c1nc(Cl)c(N)nc1N [Amiloride]	84.2%	
N=C(N)NC(=O)c1nc(Cl)c(N)nc1N	80.3%	
O=C(O)CCC(=O)N1CCC[C@H]1C(=O)O [N-Succinyl-L-proline]	98.8%	
CC(C)NCC(O)c1ccc(NS(C)(=O)=O)cc1 (racemic) [(±)-Sotalol hydrochloride]	109%	
O=C1c2cc(CO)cc(O)c2C(=O)c2c(OC3OC(CO)C(O)C(O)C3O)cccc21 (configuration not stated) [Aloe-Emodin-8-O-glycoside]		77%
CCCCOC(=O)c1ccc(N)cc1 [Butamben]	99.8%	
CCCCOC(=O)c1ccc(N)cc1	80.9%	
O=C(Nc1ccc(C(=O)O)c(O)c1)c1ccccc1	89%	
O=[N+]([O-])c1ccc2c(c1)S(=O)(=O)C=C2 [Stattic]	13.7%	
Nc1ccc(-c2ccc3ccccc3n2)cc1 [BF-170 hydrochloride]	98.1%	
CCOc1ccccc1OCC1CNCCO1 (configuration not stated) [Viloxazine hydrochloride]	110%	
CC[C@H]1OC(=O)[C@H](C)[C@@H](O[C@H]2C[C@@](C)(OC)[C@@H](O)[C@H](C)O2)[C@H](C)[C@@H](O[C@@H]2O[C@H](C)C[C@H](N(C)C)[C@H]2O)[C@](C)(OC)C[C@@H](C)C(=O)[C@H](C)[C@@H](O)[C@]1(C)O	89.1 ± 20%	

SMILES	HMGB1-induced TNF-alpha production (compound concentration: 3 uM)	HMGB1-induced TNF-alpha production [1]
CC[C@H]1OC(=O)[C@H](C)[C@@H](O[C@H]2C[C@@](C)(OC)[C@@H](O)[C@H](C)O2)[C@H](C)[C@@H](O[C@@H]2O[C@H](C)C[C@H](N(C)C)[C@H]2O)[C@](C)(OC)C[C@@H](C)C(=O)[C@H](C)[C@@H](O)[C@]1(C)O [Clarithromycin]	89.1 ± 28%	
CC(=O)SCC[N+](C)(C)C [Acetylthiocholine chloride]	90.9%	
O=C(Nc1nc2ccccc2n1CCN1CCOCC1)c1cccc([N+](=O)[O-])c1 [IRAK-1/4 Inhibitor I]	105%	
CCCCC1=NC2(CCCC2)C(=O)N1Cc1ccc(-c2ccccc2-c2nnn[nH]2)cc1	82.3 ± 18%	
CC(C)COC(=O)OCN1C(=O)CN(CCN2CC(=O)N(COC(=O)OCC(C)C)C(=O)C2)CC1=O [Sobuzoxane]	119%	
NS(=O)(=O)c1cc2c(cc1Cl)N=CNS2(=O)=O	94.5%	
NS(=O)(=O)c1cc2c(cc1Cl)N=CNS2(=O)=O [Chlorothiazide]	71.3 ± 12%	
CNS(=O)(=O)Cc1ccc2[nH]cc(CCN(C)C)c2c1 [Sumatriptan Succinate]	88.3%	
CNS(=O)(=O)Cc1ccc2[nH]cc(CCN(C)C)c2c1	110%	
CNS(=O)(=O)Cc1ccc2[nH]cc(CCN(C)C)c2c1 [Sumatriptan succinate]	104%	
O=c1c(O)c(-c2ccc(O)c(O)c2)oc2cc(O)ccc12 [Fisetin]		52.9%
CN[C@H](CC(C)C)C(=O)N[C@H]1C(=O)N[C@@H](CC(N)=O)C(=O)N[C@H]2C(=O)N[C@H]3C(=O)N[C@H](C(=O)N[C@H](C(=O)O)c4cc(O)cc(O)c4-c4cc3ccc4O)[C@H](O)c3ccc(c(Cl)c3)Oc3cc2cc(c3O[C@@H]2O[C@H](CO)[C@@H](O)[C@H](O)[C@H]2O[C@H]2C[C@](C)(N)[C@H](O)[C@H](C)O2)Oc2ccc(cc2Cl)[C@H]1O [Vancomycin hydrochloride from Streptomyces orientalis]	104%	
CN[C@H](CC(C)C)C(=O)N[C@H]1C(=O)N[C@@H](CC(N)=O)C(=O)N[C@H]2C(=O)N[C@H]3C(=O)N[C@H](C(=O)N[C@H](C(=O)O)c4cc(O)cc(O)c4-c4cc3ccc4O)[C@H](O)c3ccc(c(Cl)c3)Oc3cc2cc(c3O[C@@H]2O[C@H](CO)[C@@H](O)[C@H](O)[C@H]2O[C@H]2C[C@](C)(N)[C@H](O)[C@H](C)O2)Oc2ccc(cc2Cl)[C@H]1O	98.8%	
CN[C@H](CC(C)C)C(=O)N[C@H]1C(=O)N[C@@H](CC(N)=O)C(=O)N[C@H]2C(=O)N[C@H]3C(=O)N[C@H](C(=O)N[C@H](C(=O)O)c4cc(O)cc(O)c4-c4cc3ccc4O)[C@H](O)c3ccc(c(Cl)c3)Oc3cc2cc(c3O[C@@H]2O[C@H](CO)[C@@H](O)[C@H](O)[C@H]2O[C@H]2C[C@](C)(N)[C@H](O)[C@H](C)O2)Oc2ccc(cc2Cl)[C@H]1O [Vancomycin hydrochloride]	61.8%	
NC(=O)c1ncn([C@@H]2O[C@H](CO)[C@@H](O)[C@H]2O)n1 [Ribavirin]	97.2 ± 13%	
NC(=O)c1ncn([C@@H]2O[C@H](CO)[C@@H](O)[C@H]2O)n1	101%	
CCOc1ccc2c(c1)C(C)=CC(C)(C)N2 [Ethoxyquin]	97.8%	
CCOC(=O)[C@H](CCc1ccccc1)N[C@@H](C)C(=O)N1[C@H](C(=O)O)C[C@@H]2CCC[C@@H]21	91.9 ± 1.4%	

Three entries from above, in markdown:

| SMILES | HMGB1-induced TNF-alpha production (compound concentration: 3 uM) | HMGB1-induced TNF-alpha production [1] |
| --- | --- | --- |
| NS(=O)(=O)c1cc2c(cc1Cl)N=CNS2(=O)=O | 94.5% |  |
| NS(=O)(=O)c1cc2c(cc1Cl)N=CNS2(=O)=O [Chlorothiazide] | 71.3 ± 12% |  |
| CNS(=O)(=O)Cc1ccc2[nH]cc(CCN(C)C)c2c1 [Sumatriptan Succinate] | 88.3% |  |
